# Experimental data: the supplement of paper PMC3334620
# Whole data set: some 33,000 sequences, median “E-score (-0.5 to 0.5)” near -0.0034, cut for the highest 2% near 0.25. This is one part of the list.
# Molecular target: T1, Yap3 (UniProt P38749)
# T1 sequence: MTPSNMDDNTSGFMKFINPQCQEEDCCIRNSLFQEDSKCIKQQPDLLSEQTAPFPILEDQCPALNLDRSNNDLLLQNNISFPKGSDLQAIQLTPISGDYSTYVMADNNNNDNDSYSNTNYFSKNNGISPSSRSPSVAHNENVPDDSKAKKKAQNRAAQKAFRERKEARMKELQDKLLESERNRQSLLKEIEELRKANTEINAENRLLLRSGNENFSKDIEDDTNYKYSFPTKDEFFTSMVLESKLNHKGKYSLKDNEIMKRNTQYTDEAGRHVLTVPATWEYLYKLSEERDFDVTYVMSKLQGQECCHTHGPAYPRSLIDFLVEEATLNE
# Assay: PBM E-score (8-mer binding enrichment) (E-score (-0.5 to 0.5)); higher = stronger / more preferred TF binding
# Conditions: protein concentration: 100 nM; construct: GST-full length
# Summary of the method: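 The E-score, a modified Wilcoxon-Mann-Whitney statistic, was computed by the Universal PBM Analysis Suite for every ungapped eight-base word pooled with its reverse complement. Scans behind it were normalised with masliner after bound GST-tagged yeast transcription factors were detected with fluorescent anti-GST. The proteins, at about 100-200 nM, had been applied to universal all-10-mer Agilent arrays made double-stranded by primer extension.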
row,Sequence,PBM E-score
1,GCACCCGA,-0.172
2,AACGTGCT,-0.0425
3,AAATAATA,0.307
4,AGTATGCG,-0.09
5,CCCCGCCA,0.0511
6,AGGCGTCG,-0.00776
7,CAGTTATG,0.161
8,AGCAGGGG,-0.224
9,ATGGTGCC,-0.196
10,ACCAACGG,-0.22
11,AGCGGTTG,-0.0583
12,CGGCAGAC,-0.254
13,TAAATACA,0.192
14,TCGTGAAA,-0.11
15,GGACCCGA,-0.136
16,GTGACAAA,0.116
17,AACCTTAG,-0.172
18,AACTCTCG,0.00885
19,TGTGCTAA,0.0881
20,GGACTTTA,-0.208
21,AGCGGCTG,-0.159
22,GAAAGGGA,-0.17
23,GCACTAAC,0.0358
24,CACAGTCC,-0.14
25,AATTTTGT,0.145

row,Sequence,PBM E-score
1,AGCACGAC,-0.0788
2,ATCCTGGC,0.00893
3,AATTCAGC,0.006
4,CTGTGCTC,0.118
5,GAACTCAA,-0.127
6,CGACTTGA,0.0954
7,ACGAATGA,0.122
8,GGCTACAA,0.0593
9,TGACAGCA,0.00105
10,CACACTAG,-0.0707
11,ACGACGTG,0.018
12,GGCGTGAA,-0.168
13,ACTGAGCG,-0.152
14,AAGTCCAC,-0.145
15,GCGTATCA,0.0743
16,CAGCGGCA,-0.116
17,AATCGGAC,0.00628
18,CCACTGTA,0.0978
19,GAATTGAA,0.194
20,CTAGCCTC,-0.148
21,ACCAGTGA,-0.0481
22,CAGGCGAG,-0.189
23,AGGACATC,0.0832
24,TAATGAAA,0.218
25,TACTTACA,0.0647

row,Sequence,PBM E-score
1,CGCGCAGA,0.182
2,ATGGTGGG,-0.224
3,CCGCCGTC,0.0337
4,GCCCTACC,-0.276
5,ATGGAGCA,-0.0578
6,GTTCAAGA,-0.0731
7,ATCGGAAA,0.112
8,GCCTACCC,-0.177
9,GCGGCATA,0.0347
10,AACTCCTC,-0.177
11,ACCCAAAA,0.0452
12,GGTACGTA,0.0404
13,CAAGGCAA,-0.0302
14,AGCAGACT,0.15
15,TATATACA,0.226
16,ACCCGGCG,-0.303
17,CCATATCC,0.182
18,AGGGCGAT,-0.234
19,CGTGCGAA,-0.02
20,GCCTTCGC,-0.0494
21,ACGGGAAA,0.123
22,GACAAGGC,-0.177
23,ACAGGCTG,-0.123
24,GCTCGAGC,0.17
25,AATAACTG,0.138

row,Sequence,PBM E-score
1,CACACCCC,-0.333
2,ACATACGT,-0.00116
3,CAGACTGA,-0.118
4,CTATTTCC,0.243
5,CGCCTGAA,0.0486
6,ACAATGAC,-0.0505
7,GAATTTAC,0.187
8,ATAGGTCA,0.107
9,AGGGGGTG,-0.348
10,AGAAGTGG,-0.0921
11,TATTAACA,0.23
12,CACGATGG,-0.223
13,GCACCTAA,-0.0658
14,AGTCGGTG,-0.119
15,AATGCGAG,0.24
16,TGACATAA,0.3
17,ACCATTAT,0.075
18,CGCGTCGC,-0.0516
19,AAGGTAAA,0.208
20,AACAATCT,0.072
21,ACCGCAGG,-0.216
22,CATGTGAC,-0.179
23,AACATAGA,0.149
24,AACTTCTT,0.0422
25,GGACTAGA,-0.0685

row,Sequence,PBM E-score
1,ACGCGAAT,0.106
2,TAAACGAA,0.2
3,ACATGTAT,0.262
4,CGCAAGCA,-0.0684
5,CGCCCTCA,-0.0805
6,ATGAAGGC,0.0022
7,CTTAACCA,0.129
8,AGATGACC,-0.00971
9,ACGCGGCA,-0.0121
10,CGGTAGCA,0.0393
11,AGGGCCGA,0.0323
12,AAGCATGC,-0.0967
13,AGCTGTGC,-0.186
14,GAAAAGAA,0.0727
15,CAGGATGC,0.0104
16,GCATATGC,0.0435
17,ACGCCGGC,-0.0534
18,AGCAAGAG,-0.0511
19,GAGGATAA,-0.0446
20,ACTGAACA,0.212
21,AGGGCTGA,-0.111
22,TACACATA,0.168
23,AGGTAGCG,-0.0604
24,ATGGACAC,0.0777
25,CTGCTTTC,0.0811

row,Sequence,PBM E-score
1,AAGTAAAT,0.26
2,CCATACTA,0.154
3,CTCGTACC,-0.0269
4,ATTTGATA,0.273
5,AGCATACT,-0.0413
6,AGATCTAG,-0.119
7,ACAACCTG,0.0569
8,ATAGATAT,0.189
9,ATACACCA,0.102
10,AGTGGGAG,-0.0546
11,AGTGTCGC,0.0704
12,GCCTCGAC,-0.0873
13,ACGTAAGG,0.137
14,GTATTTAA,0.194
15,ATTTTCCC,0.0787
16,CGACTAAG,-0.162
17,GGCACACC,-0.278
18,TCTGCAGA,0.0937
19,TCTACGAA,-0.155
20,ACACGTAT,0.0936
21,CAGAACGG,-0.0958
22,CCCTAGAA,0.0308
23,CGTCCCGA,-0.194
24,ATTTTGAC,0.194
25,GCCCAGCC,-0.17

# In a second layout: results already given
row | Sequence | PBM E-score
17 | ACGCCGGC | -0.0534
18 | AGCAAGAG | -0.0511
19 | GAGGATAA | -0.0446
21 | AGGGCTGA | -0.111
22 | TACACATA | 0.168
23 | AGGTAGCG | -0.0604
24 | ATGGACAC | 0.0777
25 | CTGCTTTC | 0.0811
1 | AAGTAAAT | 0.26
2 | CCATACTA | 0.154
3 | CTCGTACC | -0.0269
4 | ATTTGATA | 0.273
5 | AGCATACT | -0.0413
6 | AGATCTAG | -0.119
7 | ACAACCTG | 0.0569
8 | ATAGATAT | 0.189
9 | ATACACCA | 0.102
10 | AGTGGGAG | -0.0546
11 | AGTGTCGC | 0.0704
12 | GCCTCGAC | -0.0873
14 | GTATTTAA | 0.194
15 | ATTTTCCC | 0.0787
16 | CGACTAAG | -0.162
17 | GGCACACC | -0.278
18 | TCTGCAGA | 0.0937
19 | TCTACGAA | -0.155
20 | ACACGTAT | 0.0936
21 | CAGAACGG | -0.0958
22 | CCCTAGAA | 0.0308
23 | CGTCCCGA | -0.194
24 | ATTTTGAC | 0.194
25 | GCCCAGCC | -0.17

# (cont.)

row,Sequence,PBM E-score
1,AAAACGGT,0.0105
2,CTACCGAC,-0.00826
3,AAACAAAT,0.193
4,GCAAAACC,-0.0668
5,CTGAAACC,0.0376
6,CAATTACG,0.208
7,AATCACAG,0.058
8,GACTATAA,0.0998
9,ACTGATCC,0.0385
10,AACCACCC,-0.162
11,GGTTGCAA,0.105
12,CCCGAACA,0.101
13,AGAATGTA,-0.0044
14,ATGCTGGC,0.0131
15,ACGATCAC,-0.0669
16,CGAAATTC,0.0365
17,AAGTACCT,-0.185
18,TACGCGGA,-0.0209
19,ACGCCGCG,-0.0869
20,AATAGCCC,-0.104
21,ATTGGTTA,0.162
22,CGGAAATA,0.289
